Results are given in words; binding and its absence hold for the method and conditions named. In cells and extracts the contact can be indirect. Some entries that bind do so weakly or less than the wild type.
Legend:
[1] = molecular target: transcription factor EB (TFEB), wild type (UniProt P19484); experiment: covalent SUMO conjugation in HeLa cells; His pulldown under denaturing conditions, Western blot (FIG. 1)
[2] = molecular target: transcription factor EB (TFEB), wild type (UniProt P19484); experiment: covalent SUMO conjugation in HeLa cells; Ni-agarose pulldown of His-SUMO under denaturing conditions, Western blot
[3] = molecular target: transcription factor EB (TFEB), wild type (UniProt P19484); experiment: covalent SUMO conjugation in HeLa cells deprived of nutrients; His pulldown, Western blot (FIG. 2)
[4] = molecular target: transcription factor EB (TFEB), wild type (UniProt P19484); experiment: covalent SUMO conjugation in HeLa His-SUMO2 cells treated with Torin-1; His pulldown, Western blot (FIG. 3)
[5] = molecular target: transcription factor EB (TFEB), wild type (UniProt P19484); experiment: covalent SUMO conjugation in HeLa cells deprived of nutrients for 1-4 h; His pulldown, Western blot (FIG. 2)
[6] = molecular target: transcription factor EB (TFEB), wild type (UniProt P19484); experiment: covalent SUMO conjugation in HeLa His-SUMO2 cells treated with Torin-1 for 1-4 h; His pulldown, Western blot (FIG. 3)

Sequences of proteins named here, by UniProt entry; tags and fusion partners are left off. Residues count along the entry.
UniProt P19484: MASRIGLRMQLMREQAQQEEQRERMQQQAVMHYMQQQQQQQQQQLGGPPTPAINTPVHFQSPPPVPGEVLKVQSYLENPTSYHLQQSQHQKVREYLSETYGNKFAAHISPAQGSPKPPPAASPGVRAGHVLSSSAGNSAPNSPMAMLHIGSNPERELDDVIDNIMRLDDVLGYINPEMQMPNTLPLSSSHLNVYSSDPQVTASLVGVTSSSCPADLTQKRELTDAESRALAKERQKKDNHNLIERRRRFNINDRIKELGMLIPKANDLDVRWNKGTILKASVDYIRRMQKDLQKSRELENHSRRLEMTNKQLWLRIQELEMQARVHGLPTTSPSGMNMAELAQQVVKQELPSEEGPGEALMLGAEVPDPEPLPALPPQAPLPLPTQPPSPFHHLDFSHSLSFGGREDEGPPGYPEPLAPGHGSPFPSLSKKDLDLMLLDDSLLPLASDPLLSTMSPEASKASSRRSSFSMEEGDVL
UniProt P63165, residues 1-97: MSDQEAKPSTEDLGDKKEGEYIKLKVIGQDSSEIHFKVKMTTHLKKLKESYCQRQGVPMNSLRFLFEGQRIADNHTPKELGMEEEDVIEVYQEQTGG
UniProt P61956, residues 1-93: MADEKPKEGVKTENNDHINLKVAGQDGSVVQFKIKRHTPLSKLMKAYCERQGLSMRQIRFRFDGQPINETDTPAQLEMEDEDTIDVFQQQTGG

Row | binding [1] | binding [2] | binding [3] | binding [4] | binding [5] | binding [6] | Substance
1 | binds | binds |  |  |  |  | 6xHis-tagged SUMO1 (from UniProt P63165 1-97)
2 | binds | binds | binds | binds | binds | binds | 6xHis-tagged SUMO2 (from UniProt P61956 1-93)

Source: patent publication US20220185854A1
